Results are given in words; binding and its absence hold for the method and conditions named. Some results given as binding are weak or reduced against the parent protein; the word gives no strength.
What was measured:
Assay in all cases: peptide or protein array; SPOT peptides on cellulose membrane; 1 μM 6xHis-tagged MLL4 PHD cassette in TBS-T overnight at 4 °C; probed with anti-6xHis-HRP, chemiluminescence; signals relative to the H4K20me0 peptide (100%), spots of at least 50% taken as candidate binders; both purified
[1] = target: CFP1 K339me3 peptide (human) (UniProt Q9P0U4)
[2] = target: CFP1 K339me2 peptide (human) (UniProt Q9P0U4)
[3] = target: CFP1 K331me2 peptide (human) (UniProt Q9P0U4)
[4] = target: CFP1 K331me3 peptide (human) (UniProt Q9P0U4)

Amino acid sequences for entries named in this document (tags omitted). Residues count along the entry.
CFP1 K331me3 peptide (Q9P0U4, residues 321-341): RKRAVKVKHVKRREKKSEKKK
CFP1 K339me2 peptide (Q9P0U4, residues 329-349): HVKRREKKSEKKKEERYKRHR
UniProt O14686, residues 156-341: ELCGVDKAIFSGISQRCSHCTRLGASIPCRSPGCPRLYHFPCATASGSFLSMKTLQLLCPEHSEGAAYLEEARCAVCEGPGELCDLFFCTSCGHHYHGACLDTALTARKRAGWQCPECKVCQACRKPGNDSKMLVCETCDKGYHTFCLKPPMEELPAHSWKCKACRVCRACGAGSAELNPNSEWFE

Measured: binding

MLL4 PHD1–3 (residues 156–341) (from UniProt O14686 156-341) (domain or fragment)
binds weakly: [1] | [2] | [3] | [4]

From paper PMC12551112, “Exploration into the MLL4/WRAD Enzyme-Substrate Network: Systematic In Vitro Identification of CFP1 as a Potential Non-Histone Substrate of the MLL4 Lysine Methyltransferase” (Epigenomes, 2025)
